Results from paper PMC11135676.
For part of these data: Negatives hold for the conditions tested. For part of these data: The exact form of at least one protein or probe is not confirmed. For part of these data: A weaker result is weaker than the reference pair of the same experiment.

Chains of the proteins cited; added tags and fusions are not shown. Lines headed by an entry give the natural chain unless they say otherwise; changes in a name come on top. Residues count along the entry.
UniProt P08874, 3-96: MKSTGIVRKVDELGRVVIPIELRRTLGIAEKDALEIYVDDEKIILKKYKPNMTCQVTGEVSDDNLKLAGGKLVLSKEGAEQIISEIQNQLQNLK
UniProt P40762: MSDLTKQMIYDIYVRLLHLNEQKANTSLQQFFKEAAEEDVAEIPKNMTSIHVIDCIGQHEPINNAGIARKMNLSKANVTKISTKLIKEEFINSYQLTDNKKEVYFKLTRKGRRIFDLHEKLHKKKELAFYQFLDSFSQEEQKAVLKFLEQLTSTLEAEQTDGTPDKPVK
UniProt P11065: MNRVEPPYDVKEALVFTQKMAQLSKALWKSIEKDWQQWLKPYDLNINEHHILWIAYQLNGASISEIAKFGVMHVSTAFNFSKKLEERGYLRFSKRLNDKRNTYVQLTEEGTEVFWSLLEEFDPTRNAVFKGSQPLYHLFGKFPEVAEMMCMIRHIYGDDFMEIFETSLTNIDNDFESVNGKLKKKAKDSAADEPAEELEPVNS

Experiments:
Test in all cases: EMSA
AbrB = AbrB (UniProt P08874); settings: 500-1000 nM protein; deletion of 59 bp, -14 to +45 relative to TSS; 50 mM Tris pH 8, 1 mM EDTA, 30 mM KCl, 2 mM MgCl2, 2.5 mM DTT, 0.25% Tween 20, 0.5 mg/mL BSA (1X from 5X stock), 10 nM probe, 30 min at 37 C; recombinant protein; residues 3-96; protein details: SUMO-His tag removed by Ulp1; label: 5' IRDye 700; probe letters rebuilt from the primers and the genome; part of a longer molecule
PchR (YvmB) = PchR (YvmB) (UniProt P40762); settings: 125-250 nM protein, only faint non-specific shift at highest concentration; deletion of 59 bp, -14 to +45 relative to TSS; 50 mM Tris pH 8, 1 mM EDTA, 30 mM KCl, 2 mM MgCl2, 2.5 mM DTT, 0.25% Tween 20, 0.5 mg/mL BSA (1X from 5X stock), 10 nM probe, 30 min at 37 C; recombinant protein; residues 1-169; protein details: SUMO-His tag removed by Ulp1; label: 5' IRDye 700; probe letters rebuilt from the primers and the genome; part of a longer molecule
ScoC = ScoC (UniProt P11065); settings: 250-1000 nM protein, band only at 1000 nM (non-specific), none at 250 or 500 nM; deletion of 59 bp, -14 to +45 relative to TSS; 50 mM Tris pH 8, 1 mM EDTA, 30 mM KCl, 2 mM MgCl2, 2.5 mM DTT, 0.25% Tween 20, 0.5 mg/mL BSA (1X from 5X stock), 10 nM probe, 30 min at 37 C; recombinant protein; protein details: SUMO-His tag removed by Ulp1; label: 5' IRDye 700; probe letters rebuilt from the primers and the genome; part of a longer molecule

Sequence: TCCGGTCATCTCATTCACCCCTAAAACTTATCCCGCTTTAAGTCATCACCCTCAAATACAAGATGGAATAGCTAGAACAACTGAACAAGACGAATGGCAGGCATCACTTAAAGTTTCCAAATGTTTTTTAAGATTTTAATAATCATTTTCA (double strand) [PyvmC delta59 EMSA probe]
- binding result (AbrB): no binding
- binding result (PchR (YvmB)): binds more weakly
- binding result (ScoC): binds more weakly
